Experimental data reported in PubChem BioAssay AID1445 (SRMLSC, 2008).
In all, about 220,000 compounds went through this assay and about 910 (0.41%) were called active. This list was built around the results that the source calls inconclusive (neither active nor inactive); the mix of calls is not that of the screen.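 How the source made its calls: active means primary inhibition above the hit cutoff, then over 50% inhibition at one or more dose response concentrations (cut at about 23% in these data, passing the limit was not always enough); inconclusive means conflicting primary data, or primary hits not chosen for dose response; inactive means low primary inhibition, or under 50% at every dose.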 Where a structure was tested more than once in an assay, its records may differ in their call.

Chains of the proteins cited; added tags and fusions are not shown. Lines headed by an entry give the natural chain unless they say otherwise; changes in a name come on top.
UniProt O96935: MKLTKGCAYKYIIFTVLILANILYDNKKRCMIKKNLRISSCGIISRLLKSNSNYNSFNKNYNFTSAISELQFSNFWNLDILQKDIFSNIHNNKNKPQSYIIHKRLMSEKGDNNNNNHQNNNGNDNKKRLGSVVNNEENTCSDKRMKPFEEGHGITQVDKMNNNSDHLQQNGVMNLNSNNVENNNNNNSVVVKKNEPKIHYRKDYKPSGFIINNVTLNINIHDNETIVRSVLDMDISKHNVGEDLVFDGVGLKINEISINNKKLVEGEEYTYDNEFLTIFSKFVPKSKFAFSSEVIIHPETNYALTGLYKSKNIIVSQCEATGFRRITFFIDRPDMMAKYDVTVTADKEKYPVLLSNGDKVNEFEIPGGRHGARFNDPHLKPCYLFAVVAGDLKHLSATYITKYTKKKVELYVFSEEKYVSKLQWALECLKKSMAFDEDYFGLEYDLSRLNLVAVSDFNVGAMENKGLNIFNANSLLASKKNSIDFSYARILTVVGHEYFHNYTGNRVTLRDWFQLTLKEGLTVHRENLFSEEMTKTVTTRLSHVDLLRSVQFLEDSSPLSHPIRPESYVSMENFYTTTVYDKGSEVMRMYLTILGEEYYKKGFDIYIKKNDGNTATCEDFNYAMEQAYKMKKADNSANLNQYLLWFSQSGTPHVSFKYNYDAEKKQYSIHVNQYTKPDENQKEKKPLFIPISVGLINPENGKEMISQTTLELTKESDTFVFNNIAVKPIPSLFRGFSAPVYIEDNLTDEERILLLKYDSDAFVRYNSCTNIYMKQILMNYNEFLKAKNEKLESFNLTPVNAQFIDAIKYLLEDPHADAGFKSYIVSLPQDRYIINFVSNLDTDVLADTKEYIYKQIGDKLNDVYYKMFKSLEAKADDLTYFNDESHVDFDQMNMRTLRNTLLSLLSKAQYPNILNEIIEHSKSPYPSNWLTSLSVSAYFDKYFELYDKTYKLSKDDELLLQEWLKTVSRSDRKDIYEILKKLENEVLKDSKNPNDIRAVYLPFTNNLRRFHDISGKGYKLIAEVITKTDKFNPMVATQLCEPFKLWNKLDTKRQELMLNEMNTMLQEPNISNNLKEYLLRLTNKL

Each molecule was assayed against Aminopeptidase N (Plasmodium falciparum (isolate 3D7)) (UniProt O96935) (assay: P. falciparum M1AAP inhibitors, biochemical, fluorogenic H-Leu-NHMec substrate, 1536-well (AID 1445;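 further: plate controls were DMSO full reaction for no effect and no enzyme background for full effect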)). Conditions: recombinant M1AAP, H-Leu-NHMec fluorogenic kinetic assay; at 30 µM, active compounds read high unless noted.
For COc1cc(/C=C/C(=O)O)cc(S(=O)(=O)Nc2ccc(F)cc2)c1OC, the inhibition was inactive: 5.47%.
In the case of COc1ccccc1NC(C#N)c1ccccc1OCc1ccccc1 (stereo not drawn), the inhibition is reported as inconclusive: 24.8%.
Fc1ccc(-c2csc(-c3ccncc3)n2)cc1 was tested, and the inhibition was inconclusive: 24.8%.
With CCN(CC)CCCN1C(=O)c2oc3ccccc3c(=O)c2C1c1cccs1 (stereo not drawn) the inhibition was active: 23.3%.
C=CCOC(=O)c1cc(-c2ccc(/C=C3\C(=O)NC(=O)C(C#N)=C3C)o2)ccc1Cl was tested, and the inhibition was active: 46.9%.
In the case of O=C(NCc1ccccc1F)C1CCN(C(=O)c2sccc2-n2cccc2)CC1, the inhibition is reported as inactive: 3.14%.
Cc1nc(SCC(=O)Nc2ccccc2)c2oc3ccccc3c2n1 was tested, and the inhibition was inactive: -7.15%.
In the case of COC(=O)C1=CNC=C(C(=O)OC)C1c1ccccc1Cl, the inhibition is reported as inconclusive: 28.1%.
With CCCC(=O)Nc1nnc(SCC(=O)N2CCN(c3ccccc3)CC2)s1 the inhibition was inconclusive: 24%.
For COc1cc(NC(=O)CSc2nc3c(C)ccc(C)c3cc2C)c(C(=O)O)cc1OC, the inhibition was inconclusive: 27.6%.
O=c1[nH]c2ccc(Cl)cc2c(-c2ccccc2)c1N1CCN(CCO)CC1 was tested, and the inhibition was inconclusive: 23.8%.
O=S(=O)(c1ccccc1S(=O)(=O)N1CCCCC1)N1CCCCC1 was tested, and the inhibition was inconclusive: 27.9%.
For O=[n+]1c2c(n([O-])c3ccccc31)CCC2, the inhibition was active: 26.1%.
With COc1ccc(-c2csc(/C(C#N)=C\c3ccc(O)c([N+](=O)[O-])c3)n2)cc1OC the inhibition was inactive: 3.12%.
For COc1ccc(C(=O)C2CCCN(C(=O)c3cc(C(C)C)no3)C2)cc1F (stereo not drawn), the inhibition was inactive: 0.4%.
For COC(=O)c1ccc(Cn2c(O)c(N=NC(N)=S)c3ccccc32)o1, the inhibition was inconclusive: 27.8%.
For CN(C)[C@@H]1C(=O)C(C(=O)NCN2CCCC2)=C(O)[C@@]2(O)C(=O)C3=C(O)c4c(O)cccc4[C@@](C)(O)C3CC12 (stereo partly drawn), the inhibition was inconclusive: 27.8%.
For COc1cccc(Nc2nc3ccccc3nc2NS(=O)(=O)c2cccs2)c1, the inhibition was inconclusive: 25.2%.
With CCOc1ccc(S(=O)(=O)Nc2cc(Cl)ccc2O)cc1 the inhibition was active: 24.5%.
In the case of NS(=O)(=O)c1ccc(NC(=O)COC(=O)CCNC(=O)NC23CC4CC(CC(C4)C2)C3)cc1, the inhibition is reported as inactive: 2.67%.
CC1CCCC(NC(=O)Nc2cccs2)C1C (stereo not drawn) was tested, and the inhibition was inconclusive: 24.3%.
CCN1C(=S)SC(=O)C1=C1C=C(C)N(CCO)C(C)=C1 was tested, and the inhibition was active: 26.2%.
With COc1ccc(-c2cc(C(=O)Nc3cccc(S(=O)(=O)NCc4ccco4)c3)c3ccccc3n2)cc1OC the inhibition was inconclusive: 23.8%.
In the case of CN1/C(=C/c2cc[n+](C)c3ccccc23)C=Cc2ccccc21, the inhibition is reported as inconclusive: 30.2%.
For Cc1n[nH]c(=S)n(NC(=O)/C=C/C(=O)Nn2c(=S)[nH]nc(C)c2=O)c1=O, the inhibition was inconclusive: 28%.
NNC(=O)c1snnc1-c1ccccc1 was tested, and the inhibition was inconclusive: 25.2%.
Cn1cc([N+](=O)[O-])c(C(=O)NNC(=O)c2ccc([N+](=O)[O-])cc2)n1 was tested, and the inhibition was inactive: 1.97%.
O=C(O)c1c2c(nc3ccc(S(=O)(=O)N4CCC(C(=O)NC5CCCC5)CC4)cc13)CCCCC2 was tested, and the inhibition was active: 26.5%.
In the case of O=C(O)c1cccc(S(=O)(=O)Nc2cc(Cl)ccc2Cl)c1, the inhibition is reported as inconclusive: 24.2%.
In the case of Cc1cc(NC(=O)c2ccco2)ncc1NC(=O)CCc1ccccc1, the inhibition is reported as active: 29.7%.
In the case of CCOc1ccc(-c2nnc3ccc(SCC(=O)Nc4nc5ccccc5s4)nn23)cc1, the inhibition is reported as inactive: -0.15%.
For Cc1cccc(C(=O)NNC(=O)c2ccc(Cl)cc2)c1O, the inhibition was active: 27.7%.
In the case of CSC1=NSC2=NC(=O)/C(=C/c3coc4ccccc4c3=O)C(=N)N12, the inhibition is reported as inconclusive: 27.2%.
COC(=O)c1cc(C)nc(N)c1C#N was tested, and the inhibition was inconclusive: 10.1%.
With N#Cc1c(N2CCCCC2)nc(N)c2c(N)nc(SCC(=O)O)cc12 the inhibition was inconclusive: 25.3%.
With COCCNc1cc(C)c(C#N)c2nc3ccccc3n12 the inhibition was inactive: -4.32%.
For COc1ccc2ccccc2c1C1CC(=O)N2CN(C3CCCCC3)CSC2=C1C#N (stereo not drawn), the inhibition was active: 28%.
Cc1onc(-c2c(Cl)cccc2Cl)c1C(=O)NC1C(=O)N2C1SC(C)(C)C2C(=O)O (stereo not drawn) was tested, and the inhibition was inconclusive: 25.9%.
For O=C(NNC(=O)c1ccccc1O)c1ccc(Cl)cc1, the inhibition was inconclusive: 41.7%.
In the case of CC[n+]1c(/C=C(\C)Nc2ccccc2)sc2ccccc21, the inhibition is reported as inconclusive: 32.7%.
In the case of Cc1cc(C)c(Nc2cc(S(=O)(=O)O)c(N)c3c2C(=O)c2ccccc2C3=O)c(C)c1, the inhibition is reported as inconclusive: 60.7%.
For COCCN=c1scc(-c2cccs2)n1/N=C/c1ccc(O)c(O)c1O, the inhibition was inconclusive: 26.2%.
With CC(C)Oc1ccc2ccccc2c1C=O the inhibition was active: 23.8%.
With Cc1c(Cc2ccccc2)c(=O)oc2c(O)c(O)ccc12 the inhibition was inactive: 17.1%.
In the case of COc1cccc(N/C(SCc2cccc([N+](=O)[O-])c2)=C(/C#N)C(N)=O)c1, the inhibition is reported as inconclusive: 27.4%.
For Nc1cc2sc(-c3ccc(C(=O)O)cc3)nc2cc1Cl, the inhibition was inconclusive: 23.3%.
In the case of O=C(Nc1ncccc1O)c1cccc(S(=O)(=O)N2CCc3ccccc32)c1, the inhibition is reported as inconclusive: 25%.
In the case of CCOc1ccc2nc(NC(=O)CSc3ccccc3)sc2c1, the inhibition is reported as inactive: 8.9%.
In the case of COCCCNc1ccc([N+](=O)[O-])cc1C(=O)Nc1cccc(C)n1, the inhibition is reported as inactive: 2.01%.
For COc1cccc(/C=C2\SC(=S)NC2=O)c1OS(=O)(=O)c1ccc(NC(C)=O)cc1, the inhibition was inconclusive: 28.2%.
With O=C1NN(c2ccccc2)C(=O)/C1=C\c1cccc(OC(=O)c2cccs2)c1 the inhibition was inconclusive: 26.2%.
With O=C(N/N=C/c1cc([N+](=O)[O-])ccc1O)/C(=C\c1cccs1)NC(=O)c1ccccc1 the inhibition was inconclusive: 23.4%.
Cc1cc(N=Nc2ccccc2C(=O)O)c(C)c(C)c1O was tested, and the inhibition was inconclusive: 27.3%.
CC1=CC(C)(C)[N+](C)(C)c2ccc(C)cc21 was tested, and the inhibition was inconclusive: 26.2%.
With COc1ccc(OCCC(=O)OCC(=O)Nc2cccc(Br)c2)cc1 the inhibition was inactive: 2.82%.
In the case of Cc1cccc(-n2c3nc(=O)[nH]c(=O)c-3cc3c(C)nn(-c4ccccc4)c32)c1C, the inhibition is reported as inconclusive: 27.6%.
With CCOC(=O)CSc1nc(C)c2cccc(C)c2n1 the inhibition was inactive: 0.76%.
In the case of Cn1cnnc1Sc1ccc(/C=C(\CC(=O)O)c2nc3ccccc3s2)cc1[N+](=O)[O-], the inhibition is reported as inconclusive: 23.7%.
CC(=O)Nc1ccc(S(=O)(=O)Nc2c(C)n(C)n(-c3ccccc3)c2=O)cc1 was tested, and the inhibition was inactive: 0.31%.
COCCNc1ccc(S(=O)(=O)N2CCCC2)cn1 was tested, and the inhibition was inconclusive: 25.2%.
With O=C(Nc1ccccc1-c1nnc(SCc2ccccc2Cl)o1)c1ccccc1 the inhibition was inconclusive: -2.37%.
For COc1ccc(-c2nc(N=Nc3ccc(O)cc3)n[nH]2)cc1, the inhibition was inconclusive: 27.4%.
For Cc1ccc(C(=O)N/C(=C\c2ccc(Br)cc2)c2nc(=S)[nH][nH]2)cc1, the inhibition was inconclusive: 47.1%.
For Cc1cc(N2CCOCC2)ccc1/C=C1/SC(=O)NC1=O, the inhibition was inconclusive: 24.8%.
With COc1ccc(CN(C)C(=S)Nc2ccc(OC(F)F)cc2)cc1 the inhibition was inactive: -1.27%.
With COc1ccc([N+](=O)[O-])cc1/C=N/NC(=O)CNC(=O)c1cccc(F)c1 the inhibition was inconclusive: 23.5%.
Cc1ccc(C(=O)Nc2nc3nc(-c4ccccc4)cc(=O)n3[nH]2)cc1 was tested, and the inhibition was active: 25.9%.
With O=C(O)CN1C(=O)/C(=C/c2ccc(SCc3ccccc3)o2)SC1=S the inhibition was inconclusive: 23.3%.
With CCOC(=O)CC(=O)CSc1nc2c(sc(=S)n2-c2ccc(OCC)cc2)c(=O)[nH]1 the inhibition was inconclusive: 26.4%.
COc1ccc(C(=O)N/N=C/c2c(CO)cnc(C)c2O)cc1 was tested, and the inhibition was inactive: 14.8%.
In the case of COC(=O)c1ccc(Sc2ccc(C)cc2)c(N)c1, the inhibition is reported as inactive: 11.3%.
In the case of Cc1cc(C)n2nc(C(=O)NCc3ccco3)cc2n1, the inhibition is reported as inactive: 8.12%.
For Cc1nn(-c2ccc3ccccc3c2)c(=O)c2ccccc12, the inhibition was inactive: 0.56%.
In the case of Cc1c2cc(O)c(=O)cc-2oc2cc(O)c(O)cc12, the inhibition is reported as active: 24.7%.
In the case of C/C(=N/NC(=O)CN1CCN(S(=O)(=O)c2ccc(Br)cc2)CC1)c1ccco1, the inhibition is reported as inactive: 3.47%.
With N#CC1=C(N)C(C#N)(C#N)C(c2cccnc2)C2CN(C(=O)OCc3ccccc3)CC=C12 (stereo not drawn) the inhibition was inconclusive: 23.7%.
CC(C)OP(=O)(OC(C)C)C(NC(=O)c1cccc([N+](=O)[O-])c1)C(N)=O (stereo not drawn) was tested, and the inhibition was inconclusive: 25.3%.
With O=C(O)c1cccc(NC2=C(Cl)C(=O)c3ccccc3C2=O)c1 the inhibition was inconclusive: 23.5%.
COc1cc([N+](=O)[O-])cc(/C=N/NC(=O)C(C)Nc2ccccc2C)c1O (stereo not drawn) was tested, and the inhibition was inconclusive: 28%.
With CCCCc1[nH]c(=O)c(C#N)c2c1CSC(C)(C)C2 the inhibition was active: 23.7%.
In the case of Cc1cc(C)c2c(-n3cccc3)c(C(=O)NNS(=O)(=O)c3ccc(Cl)cc3)sc2n1, the inhibition is reported as inconclusive: 71.1%.
For COc1ccc(Br)cc1C(=O)N/N=C/c1ccc2c(c1)n(C)c(=O)n2C, the inhibition was inconclusive: 24.7%.
For Cc1c(Cl)cccc1NS(=O)(=O)c1ccc2c(c1)C1C=CCC1C(c1ccc(C(=O)O)cc1)N2 (stereo not drawn), the inhibition was inconclusive: 33.4%.
In the case of Cc1ccc(OCCn2c(=S)[nH]c3c(N)ncnc32)cc1, the inhibition is reported as inconclusive: 23.4%.
For O=Cc1ccc(-c2ccc(C(=O)O)cc2)o1, the inhibition was inactive: 7.72%.
COc1ccccc1/C=C1\SC(=S)N(N2C(=O)CCCC2=O)C1=O was tested, and the inhibition was inactive: 3%.
NC(=S)N=Nc1c(O)[nH]c2cc(F)c(F)cc12 was tested, and the inhibition was inconclusive: 26.9%.
In the case of CSc1nsc2nc(=O)c(/C=C3\C(C)=Nc4ccc(C)cc43)c(N)n12, the inhibition is reported as inconclusive: 24.4%.
